We go through one molecule from paper doi:10.1101/2021.01.27.428258.

Results are given in words; binding and its absence hold for the method and conditions named. Some binding calls cover weakened binding; strength is not graded here. Tags and fused reporters may be left off the sequences shown.

The target in the test is T1, FepA (E. coli) (UniProt P05825).
T1 sequence: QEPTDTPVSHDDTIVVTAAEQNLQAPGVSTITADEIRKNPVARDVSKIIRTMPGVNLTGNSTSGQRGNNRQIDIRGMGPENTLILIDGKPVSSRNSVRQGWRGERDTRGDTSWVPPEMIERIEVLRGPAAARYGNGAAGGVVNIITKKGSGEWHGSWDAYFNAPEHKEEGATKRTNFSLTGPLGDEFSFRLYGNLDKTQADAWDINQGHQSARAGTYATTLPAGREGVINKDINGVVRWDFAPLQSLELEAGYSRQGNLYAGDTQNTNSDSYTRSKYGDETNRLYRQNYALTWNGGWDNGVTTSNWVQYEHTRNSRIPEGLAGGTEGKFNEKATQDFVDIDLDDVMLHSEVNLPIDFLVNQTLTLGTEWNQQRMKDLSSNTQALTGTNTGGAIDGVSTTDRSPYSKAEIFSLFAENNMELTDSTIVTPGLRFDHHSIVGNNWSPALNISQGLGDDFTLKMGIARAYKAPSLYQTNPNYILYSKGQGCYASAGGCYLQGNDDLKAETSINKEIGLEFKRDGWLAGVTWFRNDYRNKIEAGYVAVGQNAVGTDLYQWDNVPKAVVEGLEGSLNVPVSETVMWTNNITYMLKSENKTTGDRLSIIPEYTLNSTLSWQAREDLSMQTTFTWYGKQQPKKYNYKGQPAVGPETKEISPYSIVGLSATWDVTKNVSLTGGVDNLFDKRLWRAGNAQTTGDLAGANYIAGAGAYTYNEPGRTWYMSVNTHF
The test can be described thus: fluorescence microscopy of cells labelled with fluorescent colicin.

B1: Colicin B^1-341 GFP (domain or fragment, UniProt P05819 1-341)
chain: MSDNEGSVPTEGIDYGDTMVVWPSTGRIPGGDVKPGGSSGLAPSMPPGWGDYSPQGIALVQSVLFPGIIRRIILDKELEEGDWSGWSVSVHSPWGNEKVSAARTVLENGLRGGLPEPSRPAAVSFARLEPASGNEQKIIRLMVTQQLEQVTDIPASQLPAAGNNVPVKYRLTDLMQNGTQYMAIIGGIPMTVPVVDAVPVPDRSRPGTNIKDVYSAPVSPNLPDLVLSVGQMNTPVRSNPEIQEDGVISETGNYVEAGYTMSSNNHDVIVRFPEGSGVSPLYISAVEILDSNSLSQRQEAENNAKDDFRVKKEQENDEKTVLTKTSEVIISVGDKVGEYLG
For the molecule B1, the binding result is “binds”.
